Source: article PMC4103484, “Functional effects of polymorphisms on glucocorticoid receptor modulation of human anxiogenic substance-P gene promoter activity in primary amygdala neurones”
For some assays here: A weaker result is weaker than the reference pair of the same experiment. For some assays here: Protein sequences can lack the tags named with them. For some assays here: The exact form of at least one protein or probe is not confirmed. For some assays here: Results from cells or extracts need not show a direct contact. For some assays here: Negatives hold for the conditions tested.

What was measured:
[1] = target: glucocorticoid receptor (GR), SH-SY5Y nuclear extract (human) (UniProt P04150); assay: EMSA supershift (complex reduced by anti-GR); conditions: Dex-treated cells; EMSA: 20 fmol biotin probe with 2.0 uM GRα or 10 ug nuclear extract; buffer as Hay et al. 2005 with EDTA replaced by 50 uM ZnSO4; competitor 100x; 6% native gel; protein in an extract; label: 3' biotin (unlabelled as competitor)
[2] = target: glucocorticoid receptor (GR), SH-SY5Y nuclear extract (human) (UniProt P04150); assay: competition with a labelled probe; conditions: Dex-treated cells, EMSA: 20 fmol biotin probe with 2.0 uM GRα or 10 ug nuclear extract, buffer as Hay et al. 2005 with EDTA replaced by 50 uM ZnSO4, competitor 100x, 6% native gel, protein in an extract
[3] = target: T1, glucocorticoid receptor alpha (GRα) (human) (UniProt P04150); assay: EMSA; conditions: significantly less than 2GR, p<0.01, n=3; EMSA: 20 fmol biotin probe with 2.0 uM GRα or 10 ug nuclear extract; buffer as Hay et al. 2005 with EDTA replaced by 50 uM ZnSO4; competitor 100x; 6% native gel; recombinant protein; residues 1-777; label: 3' biotin
T1 sequence (looked up): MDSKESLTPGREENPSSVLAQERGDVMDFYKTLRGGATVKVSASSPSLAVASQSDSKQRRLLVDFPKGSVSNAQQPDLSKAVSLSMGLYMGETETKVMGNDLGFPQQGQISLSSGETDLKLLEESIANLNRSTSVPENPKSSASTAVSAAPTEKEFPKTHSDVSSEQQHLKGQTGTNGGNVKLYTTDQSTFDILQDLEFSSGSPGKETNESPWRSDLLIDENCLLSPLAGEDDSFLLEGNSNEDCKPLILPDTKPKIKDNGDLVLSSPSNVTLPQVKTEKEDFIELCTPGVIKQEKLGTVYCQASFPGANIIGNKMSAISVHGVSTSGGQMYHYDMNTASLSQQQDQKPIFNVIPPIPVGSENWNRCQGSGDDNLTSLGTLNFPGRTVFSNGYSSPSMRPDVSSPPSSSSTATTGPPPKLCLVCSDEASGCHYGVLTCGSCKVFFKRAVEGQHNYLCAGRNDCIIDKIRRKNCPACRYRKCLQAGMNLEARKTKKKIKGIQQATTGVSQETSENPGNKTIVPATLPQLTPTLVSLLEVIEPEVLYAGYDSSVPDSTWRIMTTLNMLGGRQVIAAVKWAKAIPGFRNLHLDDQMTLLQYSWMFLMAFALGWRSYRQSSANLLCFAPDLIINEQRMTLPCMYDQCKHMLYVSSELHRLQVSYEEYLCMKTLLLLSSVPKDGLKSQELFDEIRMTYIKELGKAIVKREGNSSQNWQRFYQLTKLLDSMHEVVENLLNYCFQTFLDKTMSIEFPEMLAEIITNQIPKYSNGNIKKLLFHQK

[4] = target: glucocorticoid receptor (GR), SH-SY5Y nuclear extract (human) (UniProt P04150); assay: EMSA; conditions: Dex-treated cells, reduced vs 2GR, n=3; EMSA: 20 fmol biotin probe with 2.0 uM GRα or 10 ug nuclear extract; buffer as Hay et al. 2005 with EDTA replaced by 50 uM ZnSO4; competitor 100x; 6% native gel; protein in an extract; label: 3' biotin

TAAGTTTATGGTTACAAACTGTTCTTAAAACGAGG (double strand) [GRE-cons]
binding result [1]: binds | binding result ([2]; excess unlabelled almost eliminates complex on 2GR, label: 3' biotin (unlabelled as competitor)): binds

TTGATTTAGAAGAGGGACCGTATGGTTATAGAACGATG (double strand) [2GR-mut]
binding result [3]: binds more weakly | binding result [4]: binds more weakly

CGAGCACCCTTCACCCTCCAGGCTTAACGG (double strand) [RO (random oligonucleotide)]
binding result ([2]; excess unlabelled vs 2GR probe, label: none (competitor)): no binding
